Experimental data: the supplement of paper PMC12819154, “High-throughput peptide-centric local stability assay extends protein–ligand identification to membrane proteins, tissues and bacteria” (Nature Structural & Molecular Biology, 2025)
The other results are listed elsewhere or left out. Most entries show no effect beyond the scatter of the controls.

Chains of the proteins cited; added tags and fusions are not shown. Lines headed by an entry give the natural chain unless they say otherwise; changes in a name come on top.
UniProt Q96BX8: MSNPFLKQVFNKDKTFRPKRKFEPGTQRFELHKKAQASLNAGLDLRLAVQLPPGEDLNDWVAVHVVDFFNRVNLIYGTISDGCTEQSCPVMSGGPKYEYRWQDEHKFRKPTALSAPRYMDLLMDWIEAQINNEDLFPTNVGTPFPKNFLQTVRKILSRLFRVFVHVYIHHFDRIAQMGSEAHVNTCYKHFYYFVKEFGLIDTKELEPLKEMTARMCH
UniProt Q96C19: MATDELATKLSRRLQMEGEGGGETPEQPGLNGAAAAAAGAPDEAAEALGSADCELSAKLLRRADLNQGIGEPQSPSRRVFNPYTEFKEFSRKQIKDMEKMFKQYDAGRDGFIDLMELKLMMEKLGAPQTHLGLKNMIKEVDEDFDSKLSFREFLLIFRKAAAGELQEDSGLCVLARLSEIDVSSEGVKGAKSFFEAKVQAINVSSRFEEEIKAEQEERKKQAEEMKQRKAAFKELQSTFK
UniProt Q96EB6: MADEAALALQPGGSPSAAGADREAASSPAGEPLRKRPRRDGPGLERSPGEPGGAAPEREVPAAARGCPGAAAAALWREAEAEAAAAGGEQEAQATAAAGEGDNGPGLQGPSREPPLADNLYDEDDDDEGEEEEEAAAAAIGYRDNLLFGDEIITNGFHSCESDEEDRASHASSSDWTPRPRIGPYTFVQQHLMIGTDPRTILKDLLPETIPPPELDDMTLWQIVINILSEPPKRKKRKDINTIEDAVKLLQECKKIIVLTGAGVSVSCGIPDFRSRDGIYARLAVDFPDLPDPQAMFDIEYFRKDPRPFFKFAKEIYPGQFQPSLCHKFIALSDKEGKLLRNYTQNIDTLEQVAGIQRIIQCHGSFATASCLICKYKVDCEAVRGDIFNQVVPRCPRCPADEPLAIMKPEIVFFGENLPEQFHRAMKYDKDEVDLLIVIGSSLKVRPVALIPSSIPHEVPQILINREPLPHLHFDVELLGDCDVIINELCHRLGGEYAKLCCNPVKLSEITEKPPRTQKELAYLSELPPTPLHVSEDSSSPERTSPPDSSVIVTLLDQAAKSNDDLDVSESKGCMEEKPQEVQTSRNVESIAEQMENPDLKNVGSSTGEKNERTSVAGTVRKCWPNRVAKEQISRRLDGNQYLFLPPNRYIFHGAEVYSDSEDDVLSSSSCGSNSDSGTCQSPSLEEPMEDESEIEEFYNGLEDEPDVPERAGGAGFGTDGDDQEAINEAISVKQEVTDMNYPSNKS
UniProt Q96BS2: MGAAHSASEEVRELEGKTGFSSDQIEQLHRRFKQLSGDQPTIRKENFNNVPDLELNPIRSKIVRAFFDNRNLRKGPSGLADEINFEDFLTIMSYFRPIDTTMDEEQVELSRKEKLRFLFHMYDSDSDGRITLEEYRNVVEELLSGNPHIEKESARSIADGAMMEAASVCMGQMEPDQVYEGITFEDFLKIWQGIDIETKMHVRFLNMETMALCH
UniProt Q969K3: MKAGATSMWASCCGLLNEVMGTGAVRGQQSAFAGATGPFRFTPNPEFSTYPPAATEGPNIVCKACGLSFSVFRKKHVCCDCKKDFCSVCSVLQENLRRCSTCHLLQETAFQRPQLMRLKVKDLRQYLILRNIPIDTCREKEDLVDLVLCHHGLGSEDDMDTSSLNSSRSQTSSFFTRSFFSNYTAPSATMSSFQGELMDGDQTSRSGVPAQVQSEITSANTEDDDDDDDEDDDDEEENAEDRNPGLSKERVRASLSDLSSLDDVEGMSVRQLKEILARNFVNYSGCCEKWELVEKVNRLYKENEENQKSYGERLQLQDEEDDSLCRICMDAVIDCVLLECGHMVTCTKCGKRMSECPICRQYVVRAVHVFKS
UniProt Q96AQ6: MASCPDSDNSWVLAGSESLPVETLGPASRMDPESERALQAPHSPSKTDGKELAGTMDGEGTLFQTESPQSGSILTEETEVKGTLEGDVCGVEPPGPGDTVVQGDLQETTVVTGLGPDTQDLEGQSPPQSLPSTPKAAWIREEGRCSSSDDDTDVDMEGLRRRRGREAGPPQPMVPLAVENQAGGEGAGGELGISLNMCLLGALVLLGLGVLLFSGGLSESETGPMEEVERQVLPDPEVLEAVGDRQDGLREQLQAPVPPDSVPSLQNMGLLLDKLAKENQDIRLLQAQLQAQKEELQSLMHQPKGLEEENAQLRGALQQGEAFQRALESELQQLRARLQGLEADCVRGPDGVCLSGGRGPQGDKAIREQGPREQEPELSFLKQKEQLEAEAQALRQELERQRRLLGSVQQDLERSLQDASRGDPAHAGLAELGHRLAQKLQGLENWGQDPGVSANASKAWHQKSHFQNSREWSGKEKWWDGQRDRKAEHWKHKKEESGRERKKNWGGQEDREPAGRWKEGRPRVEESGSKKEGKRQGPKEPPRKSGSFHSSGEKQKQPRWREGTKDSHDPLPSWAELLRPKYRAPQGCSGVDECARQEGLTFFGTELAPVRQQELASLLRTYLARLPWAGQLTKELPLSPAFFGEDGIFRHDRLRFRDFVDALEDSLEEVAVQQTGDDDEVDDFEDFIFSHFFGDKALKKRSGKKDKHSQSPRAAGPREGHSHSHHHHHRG
UniProt Q96EW2: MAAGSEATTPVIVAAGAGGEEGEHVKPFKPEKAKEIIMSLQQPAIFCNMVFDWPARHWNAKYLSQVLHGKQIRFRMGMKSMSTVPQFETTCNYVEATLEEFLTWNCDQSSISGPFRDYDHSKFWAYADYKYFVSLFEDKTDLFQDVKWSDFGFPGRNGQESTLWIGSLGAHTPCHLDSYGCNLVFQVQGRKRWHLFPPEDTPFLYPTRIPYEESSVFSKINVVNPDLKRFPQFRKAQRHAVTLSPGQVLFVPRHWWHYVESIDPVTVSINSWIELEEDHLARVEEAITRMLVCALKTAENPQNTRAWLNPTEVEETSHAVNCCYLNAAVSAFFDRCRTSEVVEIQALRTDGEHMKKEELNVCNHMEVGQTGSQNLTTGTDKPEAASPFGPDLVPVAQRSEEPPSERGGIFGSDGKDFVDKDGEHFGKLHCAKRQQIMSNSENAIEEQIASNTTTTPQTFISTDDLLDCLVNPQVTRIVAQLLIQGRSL
UniProt Q96FC9: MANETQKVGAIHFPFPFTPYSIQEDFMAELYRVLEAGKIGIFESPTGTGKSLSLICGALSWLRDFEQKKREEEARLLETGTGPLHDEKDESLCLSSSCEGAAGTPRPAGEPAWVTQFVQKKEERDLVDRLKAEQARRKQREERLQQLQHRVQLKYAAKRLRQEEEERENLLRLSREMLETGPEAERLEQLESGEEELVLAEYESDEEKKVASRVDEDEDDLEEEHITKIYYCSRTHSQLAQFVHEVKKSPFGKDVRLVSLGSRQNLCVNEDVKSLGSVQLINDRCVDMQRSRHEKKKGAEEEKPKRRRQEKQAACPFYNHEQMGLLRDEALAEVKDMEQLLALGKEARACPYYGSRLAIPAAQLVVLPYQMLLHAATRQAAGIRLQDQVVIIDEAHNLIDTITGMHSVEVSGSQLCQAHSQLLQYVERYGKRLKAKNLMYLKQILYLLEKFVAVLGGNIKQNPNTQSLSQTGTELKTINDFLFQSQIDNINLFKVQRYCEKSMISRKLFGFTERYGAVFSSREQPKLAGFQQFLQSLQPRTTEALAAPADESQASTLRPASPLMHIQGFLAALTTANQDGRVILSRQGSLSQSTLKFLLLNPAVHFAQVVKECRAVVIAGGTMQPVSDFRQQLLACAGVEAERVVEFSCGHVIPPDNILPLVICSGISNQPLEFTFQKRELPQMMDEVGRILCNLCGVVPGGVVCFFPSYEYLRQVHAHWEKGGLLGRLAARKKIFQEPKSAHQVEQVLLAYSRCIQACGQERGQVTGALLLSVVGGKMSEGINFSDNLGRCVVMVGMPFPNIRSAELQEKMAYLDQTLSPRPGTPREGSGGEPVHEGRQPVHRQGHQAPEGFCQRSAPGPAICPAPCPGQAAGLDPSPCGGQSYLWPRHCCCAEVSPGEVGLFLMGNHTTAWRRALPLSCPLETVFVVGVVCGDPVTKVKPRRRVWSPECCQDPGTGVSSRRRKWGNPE
UniProt Q96CT7: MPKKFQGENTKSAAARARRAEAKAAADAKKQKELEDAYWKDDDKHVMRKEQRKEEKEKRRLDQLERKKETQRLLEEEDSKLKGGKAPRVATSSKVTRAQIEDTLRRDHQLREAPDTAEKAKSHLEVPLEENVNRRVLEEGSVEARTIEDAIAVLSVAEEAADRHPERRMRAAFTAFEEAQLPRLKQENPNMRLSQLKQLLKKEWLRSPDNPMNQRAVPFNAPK
UniProt Q96D05: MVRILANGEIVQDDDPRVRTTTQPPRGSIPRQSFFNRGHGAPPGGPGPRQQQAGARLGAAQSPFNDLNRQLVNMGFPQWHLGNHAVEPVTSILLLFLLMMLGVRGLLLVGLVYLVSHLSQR
UniProt Q92835: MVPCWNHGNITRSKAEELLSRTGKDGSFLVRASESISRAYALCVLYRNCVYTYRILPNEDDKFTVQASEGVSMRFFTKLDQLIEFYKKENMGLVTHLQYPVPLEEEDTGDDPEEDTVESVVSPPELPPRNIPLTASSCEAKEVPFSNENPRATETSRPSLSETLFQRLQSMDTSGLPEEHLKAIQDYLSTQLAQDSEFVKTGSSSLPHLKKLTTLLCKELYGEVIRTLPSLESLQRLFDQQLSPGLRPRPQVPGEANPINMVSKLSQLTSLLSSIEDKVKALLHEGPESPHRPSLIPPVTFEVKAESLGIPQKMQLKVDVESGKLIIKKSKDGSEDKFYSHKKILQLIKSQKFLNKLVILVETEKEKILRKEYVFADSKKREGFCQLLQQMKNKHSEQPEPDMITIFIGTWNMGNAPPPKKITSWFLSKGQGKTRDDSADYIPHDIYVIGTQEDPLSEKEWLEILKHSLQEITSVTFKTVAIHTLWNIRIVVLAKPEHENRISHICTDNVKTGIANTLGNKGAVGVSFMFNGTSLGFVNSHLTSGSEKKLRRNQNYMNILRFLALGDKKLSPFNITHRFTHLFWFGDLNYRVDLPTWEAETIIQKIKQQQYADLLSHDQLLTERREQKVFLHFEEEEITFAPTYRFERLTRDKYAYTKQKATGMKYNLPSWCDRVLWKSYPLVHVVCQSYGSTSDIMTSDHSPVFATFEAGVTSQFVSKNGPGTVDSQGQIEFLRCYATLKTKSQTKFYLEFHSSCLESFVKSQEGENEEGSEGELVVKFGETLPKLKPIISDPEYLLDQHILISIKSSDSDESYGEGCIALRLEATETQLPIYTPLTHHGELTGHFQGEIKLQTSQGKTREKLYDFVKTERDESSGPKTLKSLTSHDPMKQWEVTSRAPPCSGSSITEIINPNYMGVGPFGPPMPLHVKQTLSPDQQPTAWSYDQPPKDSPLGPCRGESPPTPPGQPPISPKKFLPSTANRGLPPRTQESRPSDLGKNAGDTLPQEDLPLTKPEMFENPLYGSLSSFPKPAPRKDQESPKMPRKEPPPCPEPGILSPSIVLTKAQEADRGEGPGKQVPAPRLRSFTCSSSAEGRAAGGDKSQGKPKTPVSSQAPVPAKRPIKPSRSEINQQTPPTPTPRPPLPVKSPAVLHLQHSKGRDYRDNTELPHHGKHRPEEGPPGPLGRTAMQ

Compound: CN[C@@H]1C[C@H]2O[C@@](C)([C@@H]1OC)n1c3ccccc3c3c4c(c5c6ccccc6n2c5c31)C(=O)NC4 [staurosporine]
Assay: log2 fold change of tryptic peptide abundance, ligand vs vehicle (limited proteolysis) (log2 ratio); higher = more trypsin-susceptible (destabilized)
Conditions: ligand concentration: 20 uM; sample: K562 cleared lysate; digestion: 4 min, 22 C (HT-PELSA RT4min, Orbitrap Astral)

Target: UniProt Q96BX8 (peptide sequence: DKTFRPK, peptide start residue: 12)
- log2 fold change: 0.207

Target: EFHD2 (peptide sequence: LSEIDVSSEGVKGAK, peptide start residue: 177) (UniProt Q96C19)
- log2 fold change: 1.02

Target: Sirt1 (peptide sequence: SPGEPGGAAPER, peptide start residue: 47) (UniProt Q96EB6)
- log2 fold change: -0.178

Target: TESC (peptide sequence: FLFHMYDSDSDGR, peptide start residue: 117) (UniProt Q96BS2)
- log2 fold change: -0.141

Target: RNF34 (peptide sequence: SQTSSFFTR, peptide start residue: 169) (UniProt Q969K3)
- log2 fold change: -0.0868

Target: PBXIP1 (peptide sequence: MDPESER, peptide start residue: 30) (UniProt Q96AQ6)
- log2 fold change: 0.17

Target: HSPBAP1 (peptide sequence: INVVNPDLK, peptide start residue: 220) (UniProt Q96EW2)
- log2 fold change: 0.187

Target: DDX11 (peptide sequence: ELPQMMDEVGR, peptide start residue: 680) (UniProt Q96FC9)
- log2 fold change: 0.12

Target: CCDC124 (peptide sequence: TIEDAIAVLSVAEEAADR, peptide start residue: 146) (UniProt Q96CT7)
- log2 fold change: 0.2

Target: UniProt Q96D05 (peptide sequence: GHGAPPGGPGPR, peptide start residue: 38)
- log2 fold change: 0.33

Target: INPP5D (peptide sequence: FTHLFWFGDLNYR, peptide start residue: 599) (UniProt Q92835)
- log2 fold change: 0.13
